# PubChem BioAssay AID1671195 | Yale University, 2021
# Test: 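Knockdowns that increase or decrease uptake of fluorescent LDL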 (primary screen)
# Cells: human Huh7 hepatoma cells
# Reagents: siRNA pool against human genes, 18 nM
# Duration: about 2 to 2.5 days of knockdown, then 8 h LDL uptake
# Treatment: DiI-labelled LDL at 30 µg/ml for 8 h, in lipoprotein-deficient serum medium
# Measured: 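Per-cell DiI-LDL intensity by automated imaging; well means scaled to the plate median and given as a robust z-score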
# Direction: robust z-score: higher = more LDL uptake after knockdown
# Hit rule: 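Active when two or more replicates show a robust z-score above 2 or below -2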
# The deposit covers about 22,000 reagents; below is an unselected part. About 1,510 of them (6.9%) count as active. 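Active includes knockdowns raising or lowering LDL uptake; positive z-scores mean more uptake, negative mean less.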 Entries without a mark were called inactive.
gene symbol,PubChem SID,"robust z-score, replicate 1","robust z-score, replicate 2","robust z-score, replicate 3"
CELA3B,SID442894371,-0.192,0.318,-0.296
HNRNPA2B1,SID442892279,0.254,0.127,0.182
RHOBTB1,SID442886488,-0.364,2.89,0.914
LOC389070 (retired record),SID442894884,-0.0235,-0.106,-0.2
ZNF396,SID442890552,0.574,0.766,-0.134
ANKRD20A5P,SID442896094,-0.194,-0.157,-0.363
LINC01549,SID442883781,2.11 (active),2.57,2.31
LOC441092 (retired record),SID442897803,-0.189,-0.692,-0.4
TMEM190,SID442888398,0.827,0.422,0.93
THUMPD1,SID442893885,0.0703,-1.04,0.964
ANKRD12,SID442897974,-0.346,-0.744,-0.248
TMEM139,SID442889584,0.375,0.173,1.06
CD37,SID442893523,-0.193,-0.595,0.91
EPB41L5,SID442902847,-1.61,-1.05,-0.822
CIMAP3,SID442900853,-0.928,-0.868,-0.654
COX19,SID442898958,-0.606,-0.45,-0.621
SACK1F,SID442892951,0.475,-0.0642,-0.0971
PDPR,SID442894161,-0.403,0.399,-0.0979
CACNA1F,SID442885655,2.35,0.477,1.43
ZNF750,SID442884799,2.34,1.63,1.67
CHST7,SID442893337,0.0895,0.33,-0.233
OR4F6,SID442903221,-1.08,-1.41,-1.25
ECHDC1,SID442902389,-0.838,-0.935,-1.42
LRRC66,SID442897389,-0.505,-0.321,-0.316
HOMEZ,SID442884986,0.883,1.8,2.54
CFDP1,SID442903812,-2.62,-0.348,-1.23
TAOK1,SID442893455,0.0852,0.0691,-0.00994
PPP1R13L,SID442885100,1.65,2.05,1.34
PI4KB,SID442887671,1.19,0.501,0.901
KCNK6,SID442902635,-1.22,-1.17,-0.962
DHX40,SID442888353,0.344,1.18,0.677
BAG4,SID442887442,1.05,0.933,0.756
INSL4,SID442903198,-0.76,-1.93,-1.03
MEA1,SID442886685,1.24,1.21,0.816
LNX1,SID442888071,0.868,1.23,0.262
KIF19,SID442902405,-1.08,-0.905,-1.22
HTATSF1P2,SID442901714,-0.606,-1.38,-0.842
LOC400964 (retired record),SID442902765,-1.36,-1.24,-0.833
MRAS,SID442899942,0.151,-1.54,-0.677
TMCO4,SID442900407,-0.758,-0.662,-0.846
CNOT9,SID442898943,-0.296,-1.02,-0.358
LOC440708 (retired record),SID442904716,-2.18,-1.65,-1.65
LOC442503 (retired record),SID442884776,-1.26,-1.34,-4.97
PIP5KL1,SID442890834,0.457,0.331,0.304
CLECL1,SID442899036,-0.651,-0.335,-0.722
LOC441937 (retired record),SID442897982,-0.431,-0.593,-0.317
ANKRD28,SID442890482,0.787,-0.692,1.14
RAC1,SID442890062,0.825,0.853,-0.273
LOC400730 (retired record),SID442893690,-0.161,0.172,0.0516
IQSEC3P3,SID442896744,-0.355,-0.356,-0.212
LOC387912 (retired record),SID442896776,-0.233,-0.184,-0.518
P4HA1,SID442887228,1.21,1.26,0.399
FSIP2,SID442899101,-0.656,-0.528,-0.545
FSIP2,SID442902591,-0.861,-1.26,-1.2
ZFAND2B,SID442886918,0.871,1.22,1
GPR68,SID442894700,0.602,-0.787,-0.0884
ASB11,SID442885566,1.78,0.661,1.95
SPRED1,SID442887107,0.765,0.784,1.41
LOC401545 (retired record),SID442885303,1.59,1.09,2.03
RIMOC1,SID442897873,-0.195,-0.666,-0.443
FLRT2,SID442903755,-0.426,-2.18,-1.54
CACYBP,SID442893486,-1.11,0.0709,1.17
FYCO1,SID442886440,0.744,1.12,1.62
KCNS3,SID442903846,-1.76,-1.67,-0.805
OR12D2,SID442890909,-0.0406,0.14,0.966
DVL2,SID442885274,2.46,0.214,2.08
CPAMD8,SID442894047,-0.116,-0.242,0.295
TBC1D10B,SID442892628,0.211,0.599,-0.38

6 entries from above, ordered by “robust z-score, replicate 1”, ascending.
gene symbol,PubChem SID,"robust z-score, replicate 1","robust z-score, replicate 2","robust z-score, replicate 3"
IQSEC3P3,SID442896744,-0.355,-0.356,-0.212
LOC387912 (retired record),SID442896776,-0.233,-0.184,-0.518
LOC400730 (retired record),SID442893690,-0.161,0.172,0.0516
ANKRD28,SID442890482,0.787,-0.692,1.14
RAC1,SID442890062,0.825,0.853,-0.273
P4HA1,SID442887228,1.21,1.26,0.399
